Measured values taken from PubChem BioAssay (Tox21).
“And” between values parts separate entries of the source, which are not always exact repeats. Equal entries are not always repeated. Inconclusive means that the source gave no clear call. Such entries were picked first, then a sample of the others. For some of these results: Where the call is inconclusive, the potency comes from a doubtful curve fit. The source made the active and inactive calls. Unless noted, calls come from the whole dose curve.

By UniProt entry, the sequences of proteins in these tests, tags left out.
UniProt P14416, whole entry, looked up: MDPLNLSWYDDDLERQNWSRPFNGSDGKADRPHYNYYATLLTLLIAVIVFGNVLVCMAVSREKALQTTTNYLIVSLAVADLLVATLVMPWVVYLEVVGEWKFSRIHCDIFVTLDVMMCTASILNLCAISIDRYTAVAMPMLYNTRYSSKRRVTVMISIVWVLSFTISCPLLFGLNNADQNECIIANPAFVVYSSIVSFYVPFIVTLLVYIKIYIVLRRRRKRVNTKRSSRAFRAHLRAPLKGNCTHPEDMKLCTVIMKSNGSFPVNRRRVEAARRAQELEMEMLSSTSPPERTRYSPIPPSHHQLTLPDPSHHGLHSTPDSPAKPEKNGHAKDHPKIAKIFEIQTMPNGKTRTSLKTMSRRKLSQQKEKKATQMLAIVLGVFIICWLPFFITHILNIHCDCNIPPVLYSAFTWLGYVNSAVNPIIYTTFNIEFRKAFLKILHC

Key:
[1] = molecular target: Beta-2 adrenergic receptor (Homo sapiens) (UniProt P07550); test: Adrenergic beta2 receptor (ADRB2) small molecule antagonists, cell-based qHTS assay (AID 1963592); conditions: CHO-ADRB2 cells, isoproterenol-stimulated cAMP HTRF ratio, 0.5 h; activity change, negative = inhibition: at 92.4 µM (top of the series) unless noted; note: nearly all actives have a fitted effect of over 50% in size; note: potency is the fitted concentration of half-maximal effect
In short: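 Cells (CHO, stable ADRB2 overexpression) incubated 18-20hr at 37C; compounds added from DMSO; agonist mix (1nM isoproterenol, 100uM IBMX, 25uM Ro-20-1724) added; 0.5hr RT; d2-cAMP and anti-cAMP-cryptate added; 1hr RT; 665/615 nm read.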

[2] = molecular target: Beta-2 adrenergic receptor (Homo sapiens) (UniProt P07550); test: Adrenergic beta2 receptor (ADRB2) small molecule agonists, cell-based qHTS assay (AID 1963593); conditions: CHO-ADRB2 cells, cAMP HTRF, 30 min; note: potency is the fitted concentration of half-maximal effect;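 for activation: CHO cells stably overexpressing human ADRB2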
In short: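 CHO cells stably over-expressing ADRB2 were plated overnight at 37C, then dosed with compounds plus a stimulation mix containing 100uM IBMX and 25uM Ro-20-1724 for 0.5hr at room temperature. cAMP was measured by HTRF competition, 1hr.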

[3] = cAMP Responsive Elements (CRE) small molecule antagonists, cell-based qHTS assay (AID 1963591; active = well fitted inhibition curve with a large enough effect in the signal ratio in the repeat runs, not every such curve was filed as active; inconclusive = weak or mixed curves, or effect the other way; the % refers to the signal ratio; note: potency is the fitted concentration of half-maximal effect); conditions: CRE-bla HEK293T, beta-lactamase FRET ratio; activity change, negative = inhibition: at 92.4 µM (top of the series) unless noted
In short: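 Inhibition of NKH477-driven (0.25 uM final) CRE-beta-lactamase signal in HEK293T cells, 3 h compound exposure at 37 °C, detected by FRET substrate fluorescence.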

[4] = molecular target: D(2) dopamine receptor (Homo sapiens) (UniProt P14416); test: Dopamine D2 receptor (DRD2) small molecule agonists, cell-based qHTS assay (AID 1963594); conditions: HEK293-DRD2 cAMP HTRF, agonist mode, 30 min; activation: at 92.4 µM (top of the series) unless noted; note: nearly all actives have a fitted effect of over 35% in size; note: potency is the fitted concentration of half-maximal effect
In short: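 HEK293 cells stably expressing human DRD2, pre-treated with PDE inhibitor Ro20-1724 (0.1 mM final) and compound 10 min at room temperature, then stimulated with NKH477 (200nM […]) for 30 min. cAMP read by HTRF (665/620 nm).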

[5] = molecular target: D(2) dopamine receptor (Homo sapiens) (UniProt P14416); test: Dopamine D2 receptor (DRD2) small molecule antagonists, cell-based qHTS assay (AID 1963595; active = well fitted inhibition curve with a large enough effect in the signal ratio in the repeat runs, with a control signal flat; inconclusive = weak or mixed curves, or effect the other way; the % refers to the signal ratio); conditions: HEK293-DRD2 cAMP HTRF antagonist mode; activity change, negative = inhibition: at 92.4 µM (top of the series) unless noted
In short: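 HTRF cAMP read-out at 665 and 620 nm emission (340 nm excitation). Antagonist mode: compounds were tested against 12 nM quinpirole in DRD2-HEK293 cells, with 200 nM NKH477 raising cAMP and 0.1 mM Ro20-1724 blocking its breakdown.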

[6] = activation: at 92.4 µM (top of the series) unless noted
% is set by controls: 0 for no effect and ±100 for the full control effect.

Compound: OCC(Cl)CCl (stereo unspecified)
- Potency [1]: inactive

Compound: C=C(Cl)Cl
- Potency [1]: inactive
- activation [2, 6]: inconclusive: 0.241%

Compound: CCCCCCBr
- activity change, negative = inhibition [1]: inconclusive: -9.41%
- activation [2, 6]: inconclusive: 11.5%

Compound: CCOC(=O)c1ncn2c1CN(C)C(=O)c1c(I)cccc1-2
- activity change, negative = inhibition [3]: inconclusive: 11.8% [at 42.4 µM]
- Potency [2, 6]: inactive
- Potency [4]: inactive

Compound: c1ccoc1
- Potency [1]: inactive

Compound: O=C(O)CC[N+](=O)[O-]
- activity change, negative = inhibition [3]: inconclusive: -21.4%
- activation [2, 6]: inconclusive: -22.8%
- activation ([2]; at 92.4 µM (top of the series)): inactive: 1.18%

Compound: NNCCO
- Potency [3]: inactive
- Potency [2, 6]: inactive
- Potency [4]: inactive

Compound: CCOC(=O)NC(C)(C)Cc1ccc(Cl)cc1
- Potency [3]: inconclusive: 33.5 µM [rising, partial curve, poor fit]
- Potency [4]: inactive

Compound: Clc1cccc(Cl)c1Cl
- activity change, negative = inhibition [1]: inconclusive: -5.59%

Compound: c1ccc2c(c1)Oc1ccccc1O2
- Potency [1]: inactive
- Potency [2, 6]: inactive and inconclusive: 68.6 nM [inhibitor, single point]

Compound: COC(N)=O
- Potency [3]: inconclusive: 77 µM [activator, partial curve, poor fit]
- activation [2, 6]: inconclusive: 73.1%
- activity change, negative = inhibition [5]: inconclusive: -78.7%

Compound: CCCCOCCOC(C)=O
- Potency [1]: inactive
- activation [2, 6]: inconclusive: 25.3%
- activation ([2]; at 92.4 µM (top of the series)): inactive: 0.852%

Compound: CC1(C)Cc2cccc(O)c2O1
- Potency [3]: inactive
- activation [2, 6]: inconclusive: -1.62% and inconclusive: 6.05%
- activity change, negative = inhibition [5]: inconclusive: -10.5%

Compound: N#CC(Cl)Cl
- Potency [1]: inactive
- Potency [2, 6]: inconclusive: 0.119 µM [inhibitor, full curve, poor fit]

Compound: C[C@@H](N)[C@@H](O)c1ccccc1
- Potency [1]: inactive
- Potency [2, 6]: inactive
- activation [4]: inconclusive: 20.5% [at 42.5 µM]

Compound: N#CCCO
- Potency [3]: inactive
- Potency [2, 6]: inconclusive: 0.611 µM [inhibitor]

Compound: N#Cc1c2ccccc2cc2ccccc12
- Potency [3]: inconclusive: 24.3 µM [fluorescent]
- Potency [2, 6]: inconclusive: 0.172 µM [inhibitor, full curve, poor fit]
- activity change, negative = inhibition [5]: inconclusive: -3.46%

Compound: CCC/C=N/O
- Potency [3]: inactive
- activation [2, 6]: inconclusive: -19.1%
- activation ([2]; at 92.4 µM (top of the series)): inactive: -24.7%

Compound: CCCC[n+]1cccc(C)c1
- Potency [1]: inactive
- activation [2, 6]: inconclusive: -46% and inconclusive: -34.5%
- activation ([2]; at 92.4 µM (top of the series)): inactive: 9% [middle of 4 runs]

Compound: ClC1=C(Cl)[C@]2(Cl)[C@@H]3[C@@H](Cl)[C@@H](Cl)C[C@@H]3[C@@]1(Cl)C2(Cl)Cl
- Potency [3]: inactive
- Potency [2, 6]: inconclusive: 8.94 µM [inhibitor, single point]
- Potency [4]: inconclusive: 0.0013 µM [rising, full curve, poor fit]

Compound: ClCCCCBr
- Potency [3]: inactive
- activity change, negative = inhibition [5]: inconclusive: -2.37%

Compound: C/C=C/C=O
- Potency [3]: inactive
- activation [2, 6]: inconclusive: 10.4%
- Potency [4]: inactive

Compound: CCOS(C)(=O)=O
- Potency [1]: inactive

Compound: Cc1ncsc1CCCl
- activity change, negative = inhibition [1]: inconclusive: -25.8% [at 42.5 µM]

Compound: Cn1c(CCCC(=O)O)nc2cc(N(CCCl)CCCl)ccc21
- Potency [3]: inconclusive: 33.5 µM [activator, partial curve, poor fit]
- activation [2, 6]: inconclusive: -22% [at 42.5 µM]
- Potency [5]: inactive

Compound: O=C(O)CC(O)(CC(=O)O)C(=O)O
- Potency [1]: inactive

Compound: ClCc1cccnc1
- Potency [1]: inconclusive: 60 µM [falling, partial curve, poor fit]
- activation [2, 6]: inconclusive: 11.9%
- activation ([2]; at 92.4 µM (top of the series)): inactive: 5.36%

Compound: CCC(=O)c1ccccc1
- Potency [3]: inactive
- Potency [4]: inactive

Compound: CC(=O)/C=C/c1ccccc1
- Potency [3]: inactive
- Potency [2, 6]: inconclusive: 61.1 µM [inhibitor, partial curve]
- activation [2, 6]: inconclusive: -7.63%
- activation ([2]; at 92.4 µM (top of the series)): inactive: 21.5%

Compound: C=CCOCC1CO1 (stereo unspecified)
- Potency [1]: inactive
- Potency [4]: inconclusive: 3.12 µM [falling, full curve, poor fit]

Compound: ClCCN1CCOCC1
- Potency [2, 6]: inconclusive: 2.17 µM [inhibitor, single point]

Compound: CCCCCCC#N
- activation [2, 6]: inconclusive: -30.4%

Compound: Cc1ccc(O)cc1C
- activation [2, 6]: inconclusive: 8.38% and inconclusive: 29.8%

Compound: CCSC(=O)N(CC)C1CCCCC1
- activation [2, 6]: inconclusive: -13.3%

Compound: O=C(NCNC(=O)NC1C(=O)NC(=O)N1CO)NC1C(=O)NC(=O)N1CO (stereo unspecified)
- activation [2, 6]: inconclusive: 26.9%

Compound: C#CCOC(C(=O)OCCN(C)C)(c1ccccc1)c1ccccc1
- activation [2, 6]: inconclusive: 15.8% [at 42.5 µM]
